## Percent effect of library compounds

The chains behind the UniProt entries cited, without tags or fusion partners. Residues count along the entry.
UniProt Q4DA54, 1-478: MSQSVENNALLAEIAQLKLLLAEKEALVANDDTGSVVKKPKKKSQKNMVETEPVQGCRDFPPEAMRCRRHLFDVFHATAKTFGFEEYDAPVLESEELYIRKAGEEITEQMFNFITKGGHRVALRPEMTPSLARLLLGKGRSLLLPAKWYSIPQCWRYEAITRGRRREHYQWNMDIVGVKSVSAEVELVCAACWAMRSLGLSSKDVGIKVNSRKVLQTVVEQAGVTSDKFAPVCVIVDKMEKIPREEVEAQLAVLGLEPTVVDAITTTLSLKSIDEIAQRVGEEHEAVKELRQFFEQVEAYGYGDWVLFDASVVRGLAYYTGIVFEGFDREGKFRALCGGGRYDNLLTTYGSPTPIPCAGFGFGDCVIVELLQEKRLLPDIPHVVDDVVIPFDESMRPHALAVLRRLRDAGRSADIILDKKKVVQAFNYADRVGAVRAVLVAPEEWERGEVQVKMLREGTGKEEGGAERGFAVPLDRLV

Values are the deposited “Percent Effect”, in %.
The controls that fix the scale are not given in the record; negative values are as filed.
The compounds are a random part of those screened.

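Histidine-tRNA ligase, Trypanosoma cruzi CL Brener (UniProt Q4DA54). Enzyme assay of histidyl-tRNA synthetase; the read-out is not stated. Concentration: 30 µM. The record gives no direction; compounds that gave an IC50 in retests scored well above the rest, so higher reads as stronger inhibition. About 69,000 compounds were tested under these conditions; 0.045% (about 31) showed 50% or more at least once.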

Compound | percent effect
O=C(Nc1ccccc1)C1=NOC2(CCNCC2)C1 | -1.149
CN(Cc1cccnc1)CC1CNCc2nccn2C1 (configuration not stated) | 0.9852
Cc1ccccc1-n1cnc(Cl)c1C(=O)O | -7
O=C1CCc2cc(C(=O)NCc3ccc(-n4cncn4)nc3)ccc2N1 | 2.256
Cc1n[nH]c(-c2ccc(NC(=O)C(C)N3CCN(C)CC3)cc2)n1 (configuration not stated) | -3.922
O=S(=O)(C1CC1)N1CCn2c(Cn3cccn3)cnc2C1 | 4.813
CN1CCC(N(CCc2ccccc2)C(=O)c2ccoc2)CC1 | 1.98
Cc1cnn(CC(=O)N2CCC(c3ccn4nccc4n3)CC2)c1 | 3.714
O=C(CN1C(=O)CC2(CCCC2)C1=O)NCCc1nccs1 | 1.242
CC(=O)N1Cc2ccccc2CC1C(=O)Nc1cc(C)ccn1 (configuration not stated) | 12.99
O=C(NCC1(O)CCCCC1)c1coc(COc2cccc(F)c2)n1 | 4.348
COc1cccc(-c2noc3c2CN(c2ncnc4c2CCC4)CC3)c1 | 21.79
COc1ccc(CN2CC(O)CN(C(=O)C3CCC3)CC2=O)cc1 (configuration not stated) | 10.11
COc1ccc(NC(=O)c2nc(C)sc2C(C)C)cn1 | 12.37
CSc1ccc(CN(CCO)C(=O)CCNC(C)=O)cc1 | 1.22
CCn1ncnc1CN1CCC(CNC(=O)c2ccccc2C#N)C1 (configuration not stated) | 6.533
COc1cc(C(=O)N2C[C@H]3CC[C@@H]2CN(Cc2cscn2)C3)ccn1 | -4.848
CCC(C(=O)NC1(C(N)=O)CCCC1)n1cccn1 (configuration not stated) | 6.667
c1coc(CN2CCc3onc(Cn4ccnc4)c3C2)c1 | 5.747
CN(C)C(=O)c1ccc(N2CCC3(CCC(=O)N(CCO)C3)CC2)nc1 | 9.36
CN(C)c1ncc(C(=O)N2C[C@H]3C[C@H](Oc4ccccc4)C[C@H]3C2)cn1 | 12.64
COCCOCCCNC(=O)c1cc(Cl)cc2cccnc12 | 3.659
Cc1ncsc1C(=O)NCC1SCCc2ccccc21 (configuration not stated) | 0.5348
Cc1cccc(OCC(=O)NS(=O)(=O)Cc2ccccc2)c1 | 3.061
O=c1[nH]c2nc(N3CCSCC3)ncc2c(=O)n1-c1ccc(F)cc1 | -2.484
Cc1nccc(N[C@H]2CN(CC(C)(C)N3CCOCC3)C[C@@H]2C2CC2)n1 | 1.026
Cc1cccc(NC2CCN(C(=O)Nc3ccccn3)CC2)n1 | 1.163
COCC(=O)N1CCC2(CC1)CCN(Cc1ccccn1)C2=O | 3.825
CNc1cc(CCNC(=O)C2CCCC2)nc(-c2ccccn2)n1 | 6.061
CCOC(=O)c1sc(NC(=O)CN(C)S(C)(=O)=O)c(C#N)c1C | 3.261
O=C(CN1CCCC(Cn2cncn2)C1)Nc1cccnc1 (configuration not stated) | 0.4464
CC(C)N1[C@@H](C(=O)NCCN(C)C)C[C@H]2CN(c3ncccn3)C[C@H]21 | 4.598
CN(C)Cc1nnc(C2CCCN(c3ncccc3F)C2)n1C (configuration not stated) | -12.56
N#Cc1cccc(CN2CC[C@@H]3[C@@H]2CC(=O)N3Cc2ccncc2)c1 | 0.9804
Cn1ncc(NCc2cc(F)cc(F)c2)c(Cl)c1=O | -1.887
Cc1nc(C)n(CC2CCCN2CC(=O)NCCC2=CCCCC2)n1 (configuration not stated) | 9.756
CCn1c(C2CCNCC2)nn(Cc2ccc(C(=O)NC)o2)c1=O | 7.179
CCC1c2ccsc2CCN1Cc1cc2c(cc1OC)OCCO2 (configuration not stated) | 1.55
CN(C)Cc1cccc(-c2cccnc2C(=O)NCc2ccccn2)c1 | -1.515
Clc1ccc2nncc(N3CCCCC3)c2c1 | 1.587
Cn1nc(C(=O)N2CCOCC2)cc1C(=O)Nc1c(Cl)cccc1Cl | 1.754
Cn1nc(-c2ccccc2)c(Cl)c1C(=O)O | 1.754
Cc1nc(CCNC(=O)NC2CCCc3c2cnn3CCO)cs1 (configuration not stated) | 6.667
O=C(Nc1ccc(-c2csnn2)cc1)NC(CCO)C1CC1 (configuration not stated) | 5.357
c1cncc(OCc2noc3c2CN(Cc2ccoc2)CC3)c1 | -2.732
CNC(=O)c1cccc(NCC(=O)Nc2cc(C)nn2C)c1C | 1.961
CCSCc1ccc(C(=O)N2CCCN(CC(N)=O)CC2)cc1 | 11.11
CC(C)(C)NC(=O)N1CCC(Oc2ccc(C(F)(F)F)cn2)CC1 | 7
CC(=O)c1cccc(NC(=O)Cn2cc(I)cn2)c1 | -2.174
CNC(=O)COc1ccc(CNCc2cc(F)ccc2F)cc1 | 4.911
CN1CCC(NC(=O)NCCNc2ccccn2)CC1 | -1.149
O=C(NCc1ccccc1F)NC1CCCN(c2ncccn2)C1 (configuration not stated) | 5
CCc1ncc2c(n1)CN(c1nnc(C)c(C)c1C#N)CC2 | 1.587
CC(C)c1nn(C)c(N(C)C)c1CNCc1cscn1 | 6.897
C[C@@H]1C[C@H](C(F)(F)F)n2nc(C3CCN(S(C)(=O)=O)CC3)cc2N1 | -3.745
CSc1ccccc1NC(=O)CCN1CCC(C(=O)N(C)C)CC1 | -3.261
Cc1cnn(CC2CCN(CC(O)c3ccccc3)CC2)c1 (configuration not stated) | 8.374
COc1ncccc1C1CC(=O)NCc2nc3sccn3c21 (configuration not stated) | 2.899
CCc1ccc2c(c1)C(CCNC(=O)CSC(F)(F)F)C(=O)N2 (configuration not stated) | 7.263
CSc1ccc(C(=O)C2CCCN(C(=O)CCCn3cncn3)C2)cc1 (configuration not stated) | 4.02
O=c1[nH]c2nc(NC3CC3)ncc2c(=O)n1-c1ccc(F)cc1 | -17.07
Fc1cccc(CN2CCC[C@H](Cn3nnc(-c4ccccn4)n3)C2)c1 | 3.955
Cc1cc(C(=O)N2CCc3c(CN(C)C)nn(C)c3C2)[nH]n1 | 2.404
Cn1ncc2c1CN(C(=O)Cc1ccccn1)CC2COCC1CC1 (configuration not stated) | -2.041
CCN(CC)C(=O)Cn1c(C)cc2nc(SC)n(CC(C)C)c(=O)c21 | 8.293
CC(C)=CCN1C(=O)[C@H]2CC[C@@H]1CN(C(=O)CCc1n[nH]c(C)c1C)C2 | 8.434
CC(C)(C)OC(=O)NCC1CCN(C(=O)c2ccccc2O)CC1 | 0
Cc1nn(C)c2nc(N(Cc3ccccn3)CC3CCCO3)sc12 (configuration not stated) | 7.595
CS(=O)(=O)NC[C@H]1OC[C@@H]2CCN(CCc3ccccc3)C[C@@H]21 | 4.444
Cc1cccc(-c2ccc(C(=O)N3CCN(C(C)C)CC3)c(=O)[nH]2)c1 | 7.772

Some entries from above, unchanged:

Result for CCOC(=O)c1sc(NC(=O)CN(C)S(C)(=O)=O)c(C#N)c1C was 3.261%.
Result for Cc1nn(C)c2nc(N(Cc3ccccn3)CC3CCCO3)sc12 (configuration not stated) was 7.595%.
Result for Cn1nc(C(=O)N2CCOCC2)cc1C(=O)Nc1c(Cl)cccc1Cl was 1.754%.
Result for COc1ccc(CN2CC(O)CN(C(=O)C3CCC3)CC2=O)cc1 (configuration not stated) was 10.11%.
Result for COc1cccc(-c2noc3c2CN(c2ncnc4c2CCC4)CC3)c1 was 21.79%.
Result for CN(C)c1ncc(C(=O)N2C[C@H]3C[C@H](Oc4ccccc4)C[C@H]3C2)cn1 was 12.64%.
Result for C[C@@H]1C[C@H](C(F)(F)F)n2nc(C3CCN(S(C)(=O)=O)CC3)cc2N1 was -3.745%.
Result for CCC(C(=O)NC1(C(N)=O)CCCC1)n1cccn1 (configuration not stated) was 6.667%.
Result for Cn1ncc2c1CN(C(=O)Cc1ccccn1)CC2COCC1CC1 (configuration not stated) was -2.041%.

Data taken from ChEMBL document CHEMBL3988442, “University of Dundee, Small-Polar-MMV Screening Library” (2021).